{"source": "patent US20020086331A1", "biological_target": "Fhit domain of C. elegans NitFhit (C. elegans) (UniProt O76463)", "assay": "crystal structure of NitFhit, 2.8 Å", "note": "These are yes or no findings as the source states them, for the method shown. Some binding calls cover weakened binding; strength is not graded here.", "data": [{"binder": "Fhit domain of C. elegans NitFhit (enzyme, UniProt O76463 297-440, looked up) GGLKFARFNIPADHIFYSTPHSFVFVNLKPVTDGHVLVSPKRVVPRLTDLTDAETADLFIVAKKVQAMLEKHHNVTSTTICVQDGKDAGQTVPHVHIHILPRRAGDFGDNEIYQKLASHDKEPERKPRSNEQMAEEAVVYRNLM", "values": [{"measurement": "binding", "value": "binds"}]}]}
